Measurements taken from publication PMC4624580.
These are yes or no findings as the source states them, for the method shown. Binding seen in cells or lysates may run through a third protein. Some entries that bind do so weakly or less than the wild type.

Sequences of proteins named here, by UniProt entry; tags and fusion partners are left off. A change or cut given only in a name is not applied to a line headed by its entry.
UniProt P40337: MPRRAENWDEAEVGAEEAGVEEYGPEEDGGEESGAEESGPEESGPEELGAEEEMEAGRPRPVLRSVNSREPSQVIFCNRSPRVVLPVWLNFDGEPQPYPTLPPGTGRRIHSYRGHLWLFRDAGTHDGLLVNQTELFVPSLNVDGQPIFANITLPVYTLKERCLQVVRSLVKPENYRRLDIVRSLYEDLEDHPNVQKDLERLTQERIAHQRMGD
UniProt Q16763: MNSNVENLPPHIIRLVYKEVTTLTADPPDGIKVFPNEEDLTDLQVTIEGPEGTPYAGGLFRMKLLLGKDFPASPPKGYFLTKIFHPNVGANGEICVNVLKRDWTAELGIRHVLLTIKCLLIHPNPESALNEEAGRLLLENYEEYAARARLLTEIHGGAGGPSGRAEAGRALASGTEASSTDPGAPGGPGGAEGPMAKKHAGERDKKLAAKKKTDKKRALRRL

What was measured:
Assay in all cases: pull-down; HEK293T transfected with GST-tagged mutant VHL and/or Flag-UCP, MG132 for 16 h; GST pull-down; bound UCP detected by immunoblot
[1] = biological target: GST-tagged pVHL L158Q, in HEK293T (UniProt P40337)
[2] = biological target: GST-tagged pVHL V155A, in HEK293T (UniProt P40337)
[3] = biological target: GST-tagged pVHL Q164R, in HEK293T (UniProt P40337)

Measured: binding

Flag-UCP (E2-EPF ubiquitin carrier protein), in HEK293T (from UniProt Q16763 1-222) (enzyme)
binds: all assays above
